Laboratory results taken from PubChem BioAssay AID1347076 (National Center for Advancing Translational Sciences (NCATS), 2019).
In all, about 400,000 compounds went through this assay and about 13,000 (3.2%) were called active. Inconclusive means that the source gave no clear call. Such entries were picked first, then a sample of the others. Calls follow the shape of the dose curve; as a rule, active = well fitted cell-killing curve with a large enough effect; inconclusive = small, poorly fitted or top-dose-only effect, or effect the other way; inactive = flat fitted curve, though single readings scatter. A potency beside an inconclusive call is a rough fit, not a confirmed value.

Assay: qHTS assay for MDR1-selective chemotherapeutics: Primary screen using the drug-selected MDR subline cells KB-V1; also: nearly all actives have a fitted effect of over 60% in size
Settings: KB-V1 MDR cells viability, CellTiter-Glo, 72 h; series mostly up to 46.1 µM
How it was run: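 Drug-selected KB-V1 cells, grown in DMEM lacking phenol red with 10% FBS, receive compound titrations; after three days at 37 degrees C, surviving cell ATP is quantified by CellTiter-Glo luminescence and responses normalized and curve-fitted.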
Potency is read from the fitted curve at half-maximal effect.

Row | Structure (SMILES) | Potency
1 | COc1cc2c(cc1OC)C(c1ccccc1)NC(C)(C)C2 (configuration not stated) | inactive
2 | Cc1ccc(C(C)C)c(OCC(=O)Nc2c(C(=O)c3ccccc3)oc3ccccc23)c1 | inconclusive: 25.9 µM [rising, single point]
3 | O=C(c1ccc(N2CCCC2)c([N+](=O)[O-])c1)N1CCc2ccccc2C1 | active: 2.59 µM
4 | CCN(CC)C(=O)c1ccc2nc3ccccc3nc2c1 | active: 16.4 µM
5 | CCc1[nH]nc(C(=O)NC2CCCN(Cc3ccccc3F)C2)c1C (configuration not stated) | inactive
6 | Cc1cccc(C)c1NC(=O)Cn1nnc(-c2ccc(CN3CCC(C)CC3)cc2)n1 | inconclusive: 20.6 µM [cytotoxic, partial curve, poor fit]
7 | O=C(Nc1ccc2c(c1)OCCO2)C1CCN(S(=O)(=O)c2ccc3c(c2)OCCO3)CC1 | active: 14.6 µM
8 | O=C(O)c1ccc(S(=O)(=O)c2ccc3c(c2)C(=O)N(NC(=O)c2ccncc2)C3=O)cc1 | inactive
9 | O=C(Nc1cn(-c2ccccc2)nc1-c1ccc(Cl)cc1)c1ccccc1 | inconclusive: 18.4 µM [cytotoxic, partial curve]
10 | COc1cc2c(cc1Cl)/C(=C\CCN(C)C)c1ccccc1S2 | active: 16.4 µM
11 | CCC1(c2ccccc2)NC(=O)N(CC(=O)Nc2ccccc2C(=O)N2CCCCC2)C1=O (configuration not stated) | inactive
12 | CCCCN(Cc1ccccc1)S(=O)(=O)c1cc(Br)cc2c1N(C(C)=O)C(C)C2 (configuration not stated) | active: 20.6 µM
13 | Cc1ccc(OCc2nc3ccccc3n2C(C(=O)Nc2c(C)cccc2C)C2CC2)cc1 (configuration not stated) | inconclusive: 4.11 µM [cytotoxic, full curve]
14 | CCCCN(CCCC)Cc1cc(=O)oc2cc(OC)c(Cl)cc12 | inactive
15 | CCOc1ccc(CN(C)C(=O)CNC(=O)C2CCCCC2)cc1OC | inconclusive: 13 µM [cytotoxic, partial curve]
16 | O=C1c2ccccc2C(=O)N1c1ncc(Cc2ccc(Cl)cc2)s1 | inactive
17 | COc1ccc2nc(SCC(C)=O)c(C#N)cc2c1 | inactive
18 | CCN1CCN(Cc2c(O)ccc3c2O/C(=C\C=C\c2ccccc2)C3=O)CC1 | inconclusive: 29.1 µM [cytotoxic, single point]
19 | CCCc1cc(=O)oc2c(C)c(OS(C)(=O)=O)ccc12 | inconclusive: 11.6 µM [cytotoxic, partial curve]
20 | Cc1ccc(-c2nc(C)c(CCNC(=O)C(=O)Nc3ccc4c(c3)OCCO4)s2)cc1 | inactive
21 | CCCOc1ccc(C(=O)Nc2cccc(-c3nc4ccccc4[nH]3)c2)cc1 | active: 20.6 µM
22 | CC1=Nc2ccccc2N=C(NC(=O)CSc2nnnn2-c2ccccc2)C1c1ccccc1 (configuration not stated) | active: 13 µM
23 | CC(=O)NCCC(=O)N1CCc2c([nH]c3ccccc23)C1c1cccc(C)c1 (configuration not stated) | inconclusive: 25.9 µM [cytotoxic, single point]
24 | COc1cc(C(F)(F)F)c(C(=O)N(C)Cc2cc(Cl)cc(Cl)c2)cn1 | inconclusive: 7.31 µM [cytotoxic, partial curve, poor fit]

Looked up above:
In Potency, CCOc1ccc(CN(C)C(=O)CNC(=O)C2CCCCC2)cc1OC is listed with inconclusive: 13 µM [cytotoxic, partial curve]
In Potency, O=C(O)c1ccc(S(=O)(=O)c2ccc3c(c2)C(=O)N(NC(=O)c2ccncc2)C3=O)cc1 is listed with inactive

The list continues:

Row | Structure (SMILES) | Potency
25 | CNc1c([N+](=O)[O-])cnn1-c1ccccc1Cl | inconclusive: 32.6 µM [cytotoxic, partial curve, poor fit]
26 | CC(=O)Nc1cccc(-c2ccnc3c2CC(C)(C(=O)NCc2cccc(Cl)c2)O3)c1 (configuration not stated) | inconclusive: 29.1 µM [cytotoxic, single point]
27 | CCCCn1c(SCC(=O)c2ccc(O)c(O)c2)nc2ccsc2c1=O | inconclusive: 8.2 µM [cytotoxic, partial curve]
28 | Cc1ccccc1OCC(O)Cn1c(Br)nc2c1c(=O)[nH]c(=O)n2C (configuration not stated) | inactive
29 | CCCc1noc2c1/C(=N\O)CC(CC(C)SCC)C2 (configuration not stated) | inconclusive: 29.1 µM [cytotoxic, single point]
30 | C=CCn1c(C)cc(C2=NNC(=NCc3ccccc3)SC2)c1C | active: 9.2 µM
31 | O=C(Nc1ccccc1)c1cc(S(=O)(=O)N2CCSCC2)ccc1Cl | inconclusive: 8.2 µM [cytotoxic, partial curve]
32 | O=c1[nH]c2ccccc2c2ccc(Cl)cc12 | inconclusive: 9.2 µM [cytotoxic, partial curve]
33 | CC(C)Cc1nc2ccccc2n1CCc1ccccc1 | inconclusive: 16.4 µM [cytotoxic, single point]
34 | CCn1nnnc1-c1ccc(OC)c(S(=O)(=O)Nc2ccc(C)c(C)c2)c1 | inconclusive: 20.6 µM [cytotoxic, single point]
35 | CN1CCN(Cc2nc3ccccc3c(=O)n2Cc2nc(-c3ccccc3F)cs2)CC1 | inconclusive: 4.61 µM [cytotoxic, partial curve, poor fit]
36 | Cc1ccc(OC(=O)c2ccc(S(=O)(=O)N(C)C)cc2)c(-n2nc3ccccc3n2)c1 | inactive
37 | COc1cc(C2CC(=O)Nc3c2c(=O)[nH]c2nc4ccccc4n32)ccc1O (configuration not stated) | inactive
38 | COC(=O)c1ccn(CSc2c(F)c(F)cc(F)c2F)n1 | inconclusive: 3.66 µM [rising, partial curve, poor fit]
39 | COc1ccc(-c2nc(C#N)c(NCCCN(C)C)o2)cc1OC | inactive
40 | CCn1c(-c2ccccc2Cl)nn(CC(=O)Nc2cc(Cl)ccc2Cl)c1=S | inactive
41 | Cc1cc(OCCCC(=O)Nc2cc(S(=O)(=O)N3CCOCC3)ccc2N2CCOCC2)ccc1Cl | active: 13 µM
42 | CC(CCc1ccccc1)NC(=O)CN1CCc2ccccc2C1 (configuration not stated) | inconclusive: 16.4 µM [cytotoxic, single point]
43 | Cc1ccnc(NC(c2ccccc2)c2ccc3cccnc3c2O)c1 (configuration not stated) | inconclusive: 16.4 µM [cytotoxic, single point]
44 | Cc1cnc(C(=O)N2CCCC(C(=O)c3ccc(Cl)cc3C)C2)cn1 (configuration not stated) | inconclusive: 16.4 µM [cytotoxic, partial curve]
45 | CCC(C)(C)NC(=O)C(c1ccc(C)o1)N(C(=O)c1csnn1)c1cccc(F)c1 (configuration not stated) | active: 16.4 µM
46 | CCCc1c(-c2cccc(Cl)c2)ncn1Cc1cccc(-c2ccccc2)c1 | active: 20.6 µM
47 | O=C(CCC(=O)Nc1ccc(Cl)cc1Cl)N/N=C/c1ccc([N+](=O)[O-])o1 | inconclusive: 18.4 µM [cytotoxic, single point]
